From patent publication US20130172273A1 (GENETADI BIOTECH, S.L., priority 2010, published 2013)

Assay: general procedure: solution-phase peptide synthesis; HATU/KHCO3; HATU/HOAT/KHCO3 for cyclisation
[1] = late stage modification step, trifluoroacetate salt

Substance | step yield [1] | step yield (coupling step)
cyclo-[Asp-(beta-Lactam)-Arq | 78% | –
cyclo-[Asp-(beta-Lactam)-Arg | 85% | –
Cbz-Asp(O^tBu)-(beta-Lactam)-Arq(Pbf)-OBn | – | 75%
